Test system: New Zealand white rabbits
Experiment: Rabbit model of acute myocardial ischemia and reperfusion (coronary occlusion), infarct size by histomorphometry
Assay type: in vivo
Conditions: peptide group versus placebo group
Description: New Zealand white rabbits were used in this study. The rabbits were males and >10 weeks in age. Environmental controls in the animal rooms were set to maintain temperatures of 61° to 72° F. and relative humidity between 30% and 70%. Room temperature and humidity were recorded hourly, and monitored daily. There were approximately 10-15 air exchanges per hour in the animal rooms. Photoperiod was 12-hr light/12-hr dark (via fluorescent lighting) with exceptions as necessary to accommodate dosing and data collection. Routine daily observations were performed. Harlan Teklad, Certified Diet (2030C), rabbit diet was provided approximately 180 grams per day from arrival to the facility. In addition, fresh fruits and vegetables were given to the rabbit 3 times a week.
The peptide D-Arg-2′6′-Dmt-Lys-Phe-NH2 (sterile lyophilized powder) was used as the test article. […]
In all cases, treatments were started approximately 10 min after the onset of a 30 min ischemic insult (coronary occlusion) and continued for up to 3 h following reperfusion. In all cases, cardiovascular function was monitored both prior to and during ischemia, as well as for up to 180 min (3 h) post-reperfusion. The experiments were terminated 3 h post-reperfusion (end of study); irreversible myocardial injury (infarct size by histomorphometery) at this time-point was evaluated, and was the primary-end-point of the study. […]

Substance: D-Arg-2′,6′-Dmt-Lys-Phe-NH2 [D-Arg-2′6′-Dmt-Lys-Phe-NH2]
- AR/LV, % versus placebo: 6 ± 3%
